Screening data, single-dose tests

The chains behind the UniProt entries cited, without tags or fusion partners.
UniProt P9WFT3, whole entry: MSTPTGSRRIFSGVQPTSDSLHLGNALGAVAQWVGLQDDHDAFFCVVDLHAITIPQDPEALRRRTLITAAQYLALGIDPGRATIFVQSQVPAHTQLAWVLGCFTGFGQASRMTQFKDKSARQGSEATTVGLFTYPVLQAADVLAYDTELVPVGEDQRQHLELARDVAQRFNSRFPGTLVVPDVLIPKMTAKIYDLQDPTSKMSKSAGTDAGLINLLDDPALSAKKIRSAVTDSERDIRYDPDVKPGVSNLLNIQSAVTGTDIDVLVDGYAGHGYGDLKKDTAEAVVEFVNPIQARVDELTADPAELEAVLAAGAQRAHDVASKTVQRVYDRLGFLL
UniProt P9WNZ1, whole entry: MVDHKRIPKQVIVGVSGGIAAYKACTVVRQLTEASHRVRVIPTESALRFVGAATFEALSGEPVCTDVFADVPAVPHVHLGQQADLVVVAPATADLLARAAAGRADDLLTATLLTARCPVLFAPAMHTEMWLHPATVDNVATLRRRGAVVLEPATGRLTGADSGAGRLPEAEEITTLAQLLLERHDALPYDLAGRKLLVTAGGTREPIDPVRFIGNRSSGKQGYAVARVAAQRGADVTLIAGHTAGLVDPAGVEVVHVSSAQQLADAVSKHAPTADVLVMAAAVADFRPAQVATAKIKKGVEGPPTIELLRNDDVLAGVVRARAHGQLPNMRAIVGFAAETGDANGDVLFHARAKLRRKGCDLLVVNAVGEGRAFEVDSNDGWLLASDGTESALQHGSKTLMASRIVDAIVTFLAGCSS

Leishmania in macrophages: 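Cell assay of Leishmania donovani living inside macrophages; the read-out is not stated. Tested at 30 µM. Direction is inferred from retests: higher values go with stronger inhibition. About 69,000 compounds were tested under these conditions; 1.5% (about 1,000) showed 50% or more at least once.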
MtTrpRS: 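Tryptophan-tRNA ligase, Mycobacterium tuberculosis (UniProt P9WFT3). Enzyme assay of tryptophanyl-tRNA synthetase; the read-out is not stated. Tested at 10 µM. Direction is not recorded; retested compounds ran higher, which suggests that high means inhibition. About 65,000 compounds were tested under these conditions; 0.098% (about 64) showed 50% or more at least once.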
Toxoplasma: 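Assay of Toxoplasma gondii numbers, read through their beta-galactosidase reporter with a colour substrate. Compounds at 10 µM. The record gives no direction; the compounds picked for IC50 retests had high values, so higher reads as fewer parasites. About 67,000 compounds were tested under these conditions; 0.38% (about 260) showed 50% or more at least once.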
CoaBC: 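Enzyme assay of CoaBC with a phosphate dye (Biomol Green) read at 650 nm. Target: Coenzyme A biosynthesis protein CoaBC, Mycobacterium tuberculosis (UniProt P9WNZ1). Compounds at 30 µM. Direction is inferred from only a few compounds that gave an IC50; most scored high, so higher reads as stronger inhibition. Most strong results did not repeat in a second test. About 67,000 compounds were tested under these conditions; 0.06% (about 40) showed 50% or more at least once.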

Each number is a percent effect as filed. The controls that fix the scale are not given in the record; negative values are as filed. Compounds were drawn at random from those tested, without regard to their results. Two or more numbers in one place are separate tests of the same structure; such repeats can differ widely. A dash means the value is not listed here; it may have been measured.

Compound,Leishmania in macrophages,MtTrpRS,Toxoplasma,CoaBC
CNC(=O)CC1CCN(C(=O)NCC2(c3ccccc3F)CC2)CC1,13.3%,2.593%,1.016%,6.483%
COc1ccc(C(=O)CCc2nc(C3CC3)no2)cc1,-11.66%,2.524%,-3.557%,2.163%
O=C(Cn1cc(C2CC2)nn1)N(Cc1ccco1)CC1CCCO1 (configuration not stated),-7.552%,2.659%,-9.659%,-4.28%
CC(C)(C)c1cc(=O)[nH]c(C2(N)CCCC2)n1,8.328%,-1.069%,-7.135%,-7.239%
[H][C@@]12CN(Cc3ccc(Oc4ccccc4)cc3)C[C@]1(C(=O)O)CNC2=O,7.302%,-,-7.794%,-
CCc1nc(CC(=O)N2CCCC2CN2CCCC2)cs1 (configuration not stated),-10.07%,1.267%,-2.591%,3.259%
CCOc1ccc(Cl)c(C(=O)NC(Cc2ccccc2)C(N)=O)n1 (configuration not stated),6.553%,5.908%,-1.643%,5.449%
CN(C)C1CCCN(C(=O)c2cccc(-c3ncc[nH]3)c2)CC1 (configuration not stated),21.12%,-4.959%,3.959%,5.925%
CN(C)CCNC(=O)c1noc2c1CN(C(=O)N(C)C)CC2,20.45% and 4.253%,-5.849%,11.02%,11.21%
CCOC(=O)N1C[C@H]2CC[C@@H]1CN(Cc1ccccc1)C2,-,1.71%,-,-0.2058%
O=C(c1ccsc1)N1CCc2c(COCC3CC3)cncc2C1,-,12.43%,-,-
Cc1cc(C)c(CNc2cnc3ccccc3n2)c(=O)[nH]1,-5.428%,-0.5202%,18.25%,-0.6198%
CCc1nc(-c2ccnc(N3CCNCC3)n2)no1.Cl.Cl,8.534%,-,-2.065%,-
CCCc1ccc2oc(C(=O)N3CCN(CCOC)CC3)c(C)c2c1,32.38%,1.464%,14.3%,4.904%
OCC1CN(Cc2nc(C(F)(F)F)cs2)c2ccccc2O1 (configuration not stated),-27.32%,-2.767%,2.179%,1.927%
[H][C@@]12CCN(C[C@@H]1CC)[C@@H](CNC(=O)NC1CCCCC1)C2,-14.11%,-,-5.74%,-
Cc1ccc2c(C(=O)N(C)C)cc(-c3cnn(CCO)c3)nc2c1C,16.34%,1.514%,4.244%,4.854%
CC(C)CCN1CCC2(CCCN(c3nncs3)C2)C1.O=C(O)C(F)(F)F (configuration not stated),-24.39%,-,-1.143%,-
Cc1noc(C(C)C)c1C(=O)NCC(c1cccc(F)c1)N(C)C (configuration not stated),24.46%,-4.485%,-,-0.2571%
O=C1CCCc2[nH]c(=O)c(C(=O)N3CCc4ccccc4C3)cc21,0.8668%,-1.039%,16.97%,0.8906%
Cc1cccc(CNC(Cc2ccsc2)c2nc(C)c(C)s2)n1.Cl (configuration not stated),25.75%,-,5.814%,-
O=C(CCC(=O)Nc1nnc(C(F)(F)F)s1)NCC1CCCO1 (configuration not stated),11.6% and 24.67%,2.249%,2.273%,-0.5063%
O=C(CCC(=O)c1ccccc1)NC1(C(=O)NCC2CC2)CCCC1,5.576%,-4.237%,-2.281%,6.452%
COCCN(C)C[C@@H]1CN(c2nc(C)cc(C)n2)C[C@@H]1CO,-52.54%,1.53%,-12.14%,3.639%
O=C(O)C(F)(F)F.O=C(O)C(F)(F)F.O=C(O)C(F)(F)F.[H][C@@]12CN(Cc3ccncc3)C[C@]1([H])[C@@H](OC)CCN2C1CCC1,27.32%,-,-16.7%,-
CNC(=O)c1sccc1S(=O)(=O)NC,-16.27%,-5.899%,5.503%,-4.545%
Cc1nc([C@H]2C[C@@H]3CCN(Cc4cnn(C)c4)C[C@H]3O2)sc1C,-,-4.578%,-,-2.447%
CCN(CC1CCOC1)C(=O)CCc1nc(C(C)(C)C)no1 (configuration not stated),3.594%,-8.583%,-1.073%,1.86%
Cc1nc(C)c2c(n1)CCN(Cc1ccco1)CC2,9.17%,1.365%,2.471%,2.121%
NC(=O)c1ccc(N2CCN(Cc3ccc(F)cc3Cl)CC2)nn1,3.114%,-0.2646%,-9.987%,5.449%
Cn1nccc1CN1CCOC(c2cccc(Nc3ccccn3)n2)C1 (configuration not stated),28.74%,16.64%,-8.508%,-21.07%
Cc1cnn(C2CN(CC(O)c3ccc4c(c3)OCCO4)C2)c1 (configuration not stated),3.372%,-1.599%,-2.093%,2.679%
O=C(O)C(F)(F)F.O=C(O)C(F)(F)F.O=C1CC2(CCN(Cc3ccncc3)C2)CN1c1ccc2c(c1)OCO2 (configuration not stated),17.95%,-,-2.319%,-
[H][C@]12C[C@@H](Cn3cncn3)N(C(C)=O)[C@@]1([H])CCN(C(=O)NC1CC1)C2,20.26%,-,-3.325%,-
CN(C)C(=O)COCc1nnc2n1CCN(Cc1ccoc1)C2,-,-5.307%,-,0.2049%
Cc1cc(Br)ccc1C(=O)N(C)CCNS(C)(=O)=O,18.25%,-10.11%,0.1134%,4.8%
Cc1noc(C)c1CN(C)C(=O)C1(NS(C)(=O)=O)CCCCC1,5.015%,-1.867%,5.775%,0.7371%
O=C(c1ccco1)N1CCc2c(nc(-c3ccncc3)[nH]c2=O)C1,-46.19%,5.703%,-8.379%,-3.426%
Cc1nc(C(=O)N2CCOC(Cc3ccc(F)cc3)C2)co1 (configuration not stated),-6.231%,2.649%,-,6.888%
CC(C)NC(=O)[C@H]1C[C@@H]2[C@@H](C1)OCCN2Cc1ccccn1,-,0.6506%,-,2.903%
CN(C)C(=O)NC1COC2(CCN(Cc3ccccc3)CC2)C1.O=C(O)C(F)(F)F (configuration not stated),16.76%,-,-3.272%,-

Source: ChEMBL document CHEMBL3988442, “University of Dundee, Small-Polar-MMV Screening Library” (2021).